{"source": "the supplement of paper PMC10338343", "note": "± gives the standard deviation. Only a part is listed here, and it is no random draw. The uncertainty is large for many entries.", "data": [{"test_system": "MIWI (PIWIL1) piRISC loaded with L1MC piRNA (30 nt)", "test": "pre-steady-state target cleavage rate (min^-1); higher = faster piRNA-guided slicing of the target", "details": "guide: L1MC piRNA 5'p-UAACUAAAUACUAUGCAAGCUGUAGGUCCU; auxiliary factor: 500 nM mouse GTSF1", "how_it_was_run": "(§1)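 Using HEPES–potassium acetate buffer at 33 °C, 1 nM active affinity-purified piRISC with a single synthetic guide was mixed with 0.1 nM transcribed, DNA-blocked target RNA library for 0–8 or 0–960 min, with or without 500 nM GTSF1 partner protein. Uncleaved targets were sequenced and normalised to depth and to weakly complementary targets, and three trials were pooled with k3 capped at 0.0001 min^-1. A burst-and-steady-state fit gave the pre-steady-state cleavage rate.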", "values": [{"sequence": "UCCUGGAUGUCGUUGCUUAGAAUUUAGUUA", "pre-steady-state target cleavage rate": "0.000237 ± 0.04"}, {"sequence": "UGGCCUACAGCUUGCAUAGUAUUUAGUUA", "pre-steady-state target cleavage rate": "1.46 ± 0.076"}, {"sequence": "UCCUGGAUGUCGAACCUUAGAAUUUAGUUA", "pre-steady-state target cleavage rate": "0.000303 ± 0.013"}]}, {"test_system": "MIWI (PIWIL1) piRISC loaded with L1MC piRNA (30 nt)", "test": "pre-steady-state target cleavage rate (min^-1); MIWI and MILI are mouse PIWI proteins and EfPiwi is from a freshwater sponge; tags in brackets are library labels; higher = faster piRNA-guided slicing of the target", "details": "guide: L1MC piRNA 5'p-UAACUAAAUACUAUGCAAGCUGUAGGUCCU; auxiliary factor: none (no GTSF1)", "how_it_was_run": "as §1", "values": [{"sequence": "UGGACCUACAGCUUGCAUAGUAUAUACAAA", "pre-steady-state target cleavage rate": "0.00154 ± 0.0043"}, {"sequence": "UCCACCUACAGCUUGCAUAGUAUUUUCAAA [g6:g27:cont:t1A]", "pre-steady-state target cleavage rate": "0.00216 ± 0.0044"}, {"sequence": "UCCACCUAGAGCUUCCAUAGUAUUUAGUUA", "pre-steady-state target cleavage rate": "0.00137 ± 0.0035"}, {"sequence": "AGGACCUACAGCUUGCAUUGUAUUUUCAAA", "pre-steady-state target cleavage rate": "0.00177 ± 0.005"}, {"sequence": "UCGACCUACAGCAAGCAUAGUAUUUUCAAA", "pre-steady-state target cleavage rate": "0.000323 ± 0.0082"}, {"sequence": "AGGACCUACAGCUUGCAUUCUAUUUACAAA", "pre-steady-state target cleavage rate": "0.000818 ± 0.0095"}, {"sequence": "UCCACCUACUCGUUGCAUAGUAUUUUCAAA", "pre-steady-state target cleavage rate": "0.000893 ± 0.0047"}, {"sequence": "UCCACCUACAGCUUGCUUAGUAUUUAGAAA", "pre-steady-state target cleavage rate": "0.00213 ± 0.003"}, {"sequence": "UCCACCUACAGCUUGCAUAGUAAAUAGUAA", "pre-steady-state target cleavage rate": "0.00166 ± 0.004"}, {"sequence": "AGGACCUACAGCUUCCAUAGUUUUUAGUUA", "pre-steady-state target cleavage rate": "0.00179 ± 0.0036"}, {"sequence": "UCCACCAACAGCUUGCAUAGUAUUUACAAA", "pre-steady-state target cleavage rate": "0.00316 ± 0.0035"}, {"sequence": "UCGACCUACAGCUUGGUUAGUAUUUUCAAA", "pre-steady-state target cleavage rate": "0.000669 ± 0.0056"}, {"sequence": "UCCACCUACAGCUUCCAUAGAAUUUAGUUA", "pre-steady-state target cleavage rate": "0.00107 ± 0.004"}, {"sequence": "UCCACCUACAGCUUGCAUACAUAAAUCAAA [g12:g27:cont:t1A]", "pre-steady-state target cleavage rate": "0.00063 ± 0.011"}, {"sequence": "AGGACCUACAGCUACGAUAGUAUUUAGAAA", "pre-steady-state target cleavage rate": "0.000247 ± 0.015"}, {"sequence": "UCGACCUACAGCUUGCAUAGUAAAAAGUUA", "pre-steady-state target cleavage rate": "0.00224 ± 0.0038"}, {"sequence": "AGGACCUACAGCUUGCAUAGAUAUUAGUAA", "pre-steady-state target cleavage rate": "0.000832 ± 0.01"}, {"sequence": "UCCACCUACAGCAACCAUAGUAUUUACAAA", "pre-steady-state target cleavage rate": "0.000259 ± 0.014"}, {"sequence": "UGGACCUACAGCUUGCAUAGUUAAUAGAAA", "pre-steady-state target cleavage rate": "0.00058 ± 0.0054"}, {"sequence": "UGGACCUACAGCUUGCAUAGUAUUAUGAAA", "pre-steady-state target cleavage rate": "0.00217 ± 0.0034"}, {"sequence": "UCCUGCUACAGCUUGCAUAGUAUAAUCAAA [g8:g25:cont:t1A]", "pre-steady-state target cleavage rate": "0.000937 ± 0.0091"}, {"sequence": "UCGAGCUACAGCUUGCAUAGUAUUUUCAAA", "pre-steady-state target cleavage rate": "0.00247 ± 0.0031"}, {"sequence": "UCCACCUACAGCUUGCUAAGUAUUUAGAAA", "pre-steady-state target cleavage rate": "0.000703 ± 0.0074"}, {"sequence": "UCGACCUACAGCUUGCAUAGCUAUUUAGUUA", "pre-steady-state target cleavage rate": "0.00227 ± 0.0041"}, {"sequence": "UCCACCUACAGCUACCAUAGUAUUUACAAA", "pre-steady-state target cleavage rate": "0.000553 ± 0.014"}, {"sequence": "UCGACCUACAGCUUGCUAGUAUUUAGUUA", "pre-steady-state target cleavage rate": "0.00236 ± 0.0035"}, {"sequence": "UCCUCCUACAGCUUGCAUAGUAUUUUCAAA [g6:g26:cont:t1A]", "pre-steady-state target cleavage rate": "0.00187 ± 0.0052"}, {"sequence": "UCCACCUACAGCUUGCUAUGUAUUUUCAAA", "pre-steady-state target cleavage rate": "0.000184 ± 0.015"}, {"sequence": "UCCACCUACAGCUUGCAUACAAUUUAGAAA", "pre-steady-state target cleavage rate": "0.000507 ± 0.0093"}, {"sequence": "UCGACCUACAGCUUGCAUAGUAUUUUCAAA [g6:g28:cont:t1A]", "pre-steady-state target cleavage rate": "0.00274 ± 0.0038"}, {"sequence": "UCCUGGAUGUCGAACGUUAGCUAUUUAGUUA", "pre-steady-state target cleavage rate": "0.000331 ± 0.015"}, {"sequence": "UGGACCUACAGCUUCCAAAGUAUUUAGUUA", "pre-steady-state target cleavage rate": "0.000726 ± 0.0038"}, {"sequence": "UCCACCUACAGCUUGCAAUGUAUUUACAAA", "pre-steady-state target cleavage rate": "0.000873 ± 0.0086"}, {"sequence": "AGGACCUACAGCUUGCAUAGUUAAUAGAAA", "pre-steady-state target cleavage rate": "0.00124 ± 0.0062"}, {"sequence": "AGGACCUACAGCUUGCAAUCUAUUUACAAA", "pre-steady-state target cleavage rate": "0.000172 ± 0.021"}, {"sequence": "UCCUGGAUGUCGAAGGAUACUAUUUAGUUA", "pre-steady-state target cleavage rate": "0.000197 ± 0.042"}, {"sequence": "UCGACCUACAGCUUGCAUAGUAAUUACAAA", "pre-steady-state target cleavage rate": "0.00121 ± 0.007"}]}]}
